These are yes or no findings as the source states them, for the method shown. Binding seen in cells or lysates may run through a third protein. Here binding means that the protein was enriched with, or labelled near, the bait; the list need not be complete.
T1: PDHA2 (pyruvate dehydrogenase E1 subunit alpha 2) (mouse (endogenous in testis)) (UniProt P35487)
T1 sequence: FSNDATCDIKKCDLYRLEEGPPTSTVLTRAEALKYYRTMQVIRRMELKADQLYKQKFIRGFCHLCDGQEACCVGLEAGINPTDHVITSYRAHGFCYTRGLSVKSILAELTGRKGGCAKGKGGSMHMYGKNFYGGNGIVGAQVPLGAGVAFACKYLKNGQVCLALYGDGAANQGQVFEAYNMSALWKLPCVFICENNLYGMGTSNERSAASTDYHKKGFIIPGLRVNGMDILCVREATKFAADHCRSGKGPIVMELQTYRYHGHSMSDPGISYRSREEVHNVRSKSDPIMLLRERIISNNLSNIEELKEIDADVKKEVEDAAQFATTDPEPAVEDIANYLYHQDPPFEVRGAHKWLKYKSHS

Sequences of proteins named here, by UniProt entry; tags and fusion partners are left off.
UniProt Q921F2: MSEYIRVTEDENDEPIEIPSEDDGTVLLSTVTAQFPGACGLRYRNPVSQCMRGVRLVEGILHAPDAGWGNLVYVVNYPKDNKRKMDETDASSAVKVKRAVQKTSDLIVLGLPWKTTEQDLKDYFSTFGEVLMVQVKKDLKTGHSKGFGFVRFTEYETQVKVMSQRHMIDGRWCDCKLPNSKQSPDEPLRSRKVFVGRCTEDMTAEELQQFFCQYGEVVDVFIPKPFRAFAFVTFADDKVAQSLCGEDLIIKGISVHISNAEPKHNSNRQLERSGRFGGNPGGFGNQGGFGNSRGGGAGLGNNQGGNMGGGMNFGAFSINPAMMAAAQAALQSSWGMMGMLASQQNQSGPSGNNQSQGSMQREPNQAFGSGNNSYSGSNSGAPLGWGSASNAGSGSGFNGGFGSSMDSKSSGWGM


target: T1, PDHA2 (pyruvate dehydrogenase E1 subunit alpha 2) (mouse (endogenous in testis)); experiment: affinity purification with mass spectrometry; IP with anti-PDHA2 antibody on Dynabeads Protein G from testis lysates of 10-week-old male mice (NP40 lysis buffer, 1 h at 4°C, three washes); LC-MS/MS, MASCOT, Scaffold5

| binding | Molecule |
| --- | --- |
| binds | PDK3 (mouse (endogenous in testis)) |
| binds | TARDBP (from UniProt Q921F2 1-414) |
| binds | PDHX (protein, UniProt Q8BKZ9 54-501) ADPIKVLMPSLSPTMEQGNIVKWLRKEGEAVSAGDSLCEIETDKAVVTLDANDDGILAKIVVEEGAKNIQLGSLIALMVEEGEDWKQVEIPKDVSAPPPVSKPPAPTQPSPQPQIPCPARKEHKGTARFRLSPAARNILEKHSLDASQGTATGPRGIFTKEDALKLVELKQMGKITESRPASAPPPSLSASVPPQATAGPSYPRPMTPPVSIPGQPNAAGTFTEIPASNIRRVIAKRLTESKSTVPHAYATADCDLGAVLKVRRDLVKDDIKVSVNDFIIRAAAVTLKQMPGVNVTWDGEGPKQLPSVDISVAVATDKGLITPIIKDAAAKGIQEIADSVKVLSKKARDGKLMPEEYQGGSFSISNLGMFGIDEFAAVINPPQACILAVGRFRPVLKLTEDEEGNPQLQQHQLITVTMSSDSRVVDDELATRFLETFKANLENPMRLG |
| binds | DLD (protein, UniProt O08749 36-509) ADQPIEADVTVIGSGPGGYVAAIKSAQLGFKTVCIEKNETLGGTCLNVGCIPSKALLNNSHYYHMAHGKDFASRGIEIPEVRLNLEKMMEQKHSAVKALTGGIAHLFKQNKVVHVNGFGKITGKNQVTATKADGSTQVIDTKNILVATGSEVTPFPGITIDEDTIVSSTGALSLKKVPEKLVVIGAGVIGVELGSVWQRLGADVTAVEFLGHVGGIGIDMEISKNFQRILQRQGFKFKLNTKVTGATKKSDGKIDVSVEAASGGKAEVITCDVLLVCIGRRPFTQNLGLEELGIELDPKGRIPVNNRFQTKIPNIYAIGDVVAGPMLAHKAEDEGIICVEGMAGGAVHIDYNCVPSVIYTHPEVAWVGKSEEQLKEEGIEFKIGKFPFAANSRAKTNADTDGMVKILGHKSTDRVLGAHILGPGAGEMVNEAALALEYGASCEDIARVCHAHPTLSEAFREANLAAAFGKPINF |
| binds | PDHA1 (pyruvate dehydrogenase E1 subunit alpha 1) (protein, UniProt P35486 30-390) FANDATFEIKKCDLHRLEEGPPVTTVLTREDGLKYYRMMQTVRRMELKADQLYKQKIIRGFCHLCDGQEACCVGLEAGINPTDHLITAYRAHGFTFTRGLPVRAILAELTGRRGGCAKGKGGSMHMYAKNFYGGNGIVGAQVPLGAGIALACKYNGKDEVCLTLYGDGAANQGQIFEAYNMAALWKLPCIFICENNRYGMGTSVERAAASTDYYKRGDFIPGLRVDGMDILCVREATKFAAAYCRSGKGPILMELQTYRYHGHSMSDPGVSYRTREEIQEVRSKSDPIMLLKDRMVNSNLASVEELKEIDVEVRKEIEDAAQFATADPEPPLEELGYHIYSSDPPFEVRGANQWIKFKSVS |
| binds | PDHB (pyruvate dehydrogenase E1 subunit beta) (protein, UniProt Q9D051 31-359) VQLTVREAINQGMDEELERDEKVFLLGEEVAQYDGAYKVSRGLWKKYGDKRIIDTPISEMGFAGIAVGAAMAGLRPICEFMTFNFSMQAIDQVINSAAKTYYMSAGLQPVPIVFRGPNGASAGVAAQHSQCFAAWYGHCPGLKVVSPWNSEDAKGLIKSAIRDNNPVVMLENELMYGVAFELPAEAQSKDFLIPIGKAKIERQGTHITVVAHSRPVGHCLEAAAVLSKEGIECEVINLRTIRPMDIEAIEASVMKTNHLVTVEGGWPQFGVGAEICARIMEGPAFNFLDAPAVRVTGADVPMPYAKVLEDNSVPQVKDIIFAVKKTLNI |
| binds | HDAC6 (protein, UniProt Q9Z2V5 1-1149) MTSTGQDSSTRQRKSRHNPQSPLQESSATLKRGGKKCAVPHSSPNLAEVKKKGKMKKLSQPAEEDLVVGLQGLDLNPETRVPVGTGLVFDEQLNDFHCLWDDSFPESPERLHAIREQLILEGLLGRCVSFQARFAEKEELMLVHSLEYIDLMETTQYMNEGELRVLAETYDSVYLHPNSYSCACLATGSVLRLVDALMGAEIRNGMAVIRPPGHHAQHNLMDGYCMFNHLAVAARYAQKKHRIQRVLIVDWDVHHGQGTQFIFDQDPSVLYFSIHRYEHGRFWPHLKASNWSTIGFGQGQGYTINVPWNQTGMRDADYIAAFLHILLPVASEFQPQLVLVAAGFDALHGDPKGEMAATPAGFAHLTHLLMGLAGGKLILSLEGGYNLRALAKGVSASLHTLLGDPCPMLESCVVPCASAQTSIYCTLEALEPFWEVLERSVETQEEDEVEEAVLEEEEEEGGWEATALPMDTWPLLQNRTGLVYDEKMMSHCNLWDNHHPETPQRILRIMCHLEEVGLAARCLILPARPALDSELLTCHSAEYVEHLRTTEKMKTRDLHREGANFDSIYICPSTFACAKLATGAACRLVEAVLSGEVLNGIAVVRPPGHHAEPNAACGFCFFNSVAVAARHAQIIAGRALRILIVDWDVHHGNGTQHIFEDDPSVLYVSLHRYDRGTFFPMGDEGASSQVGRDAGIGFTVNVPWNGPRMGDADYLAAWHRLVLPIAYEFNPELVLISAGFDAAQGDPLGGCQVTPEGYAHLTHLLMGLAGGRIILILEGGYNLASISESMAACTHSLLGDPPPQLTLLRPPQSGALVSISEVIQVHRKYWRSLRLMKMEDKEECSSSRLVIKKLPPTASPVSAKEMTTPKGKVPEESVRKTIAALPGKESTLGQAKSKMAKAVLAQGQSSEQAAKGTTLDLATSKETVGGATTDLWASAAAPENFPNQTTSVEALGETEPTPPASHTNKQTTGASPLQGVTAQQSLQLGVLSTLELSREAEEAHDSEEGLLGEAAGGQDMNSLMLTQGFGDFNTQDVFYAVTPLSWCPHLMAVCPIPAAGLDVSQPCKTCGTVQENWVCLTCYQVYCSRYVNAHMVCHHEASEHPLVLSCVDLSTWCYVCQAYVHHEDLQDVKNAAHQNKFGEDMPHSH |
